PubChem BioAssay AID504791 | Drosophila RNAi Screening Center, 2011
The deposit covers about 23,000 reagents; this is an unselected part of those that have a named target and a result. Of all reagents, 199 (0.86%) were called active. 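Plate-scaled ratios behind the calls are not deposited; printed light signals are raw; many rows marked increased or decreased are still called inactive.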 Unmarked entries are inactive. Names joined by + are all predicted targets of the reagent. Not stated in the record: the direction of the score.

Screen: 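Genes whose knock-down strengthens or weakens small-RNA reporter silencing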 (primary screen)
Cells: Drosophila S2-derived reporter cells
Reagents: long dsRNA against Drosophila genes, about 150-250 ng dsRNA per well (siRNA assay); about 80-120 ng (miRNA assay)
Timing: about 5 days (siRNA assay); about 4 days (miRNA assay)
Treatment: copper sulfate induction of reporters: 25 µM (siRNA assay); 200 mM stated (miRNA assay), 1-2 days before reading
Measurement: 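Per-well ratio of Renilla over firefly light, expressed relative to that plate's average ratio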
Rule for the call: 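First-pass picks had plate-scaled ratios over 1.5 for the siRNA assay, over 1.6 for the miRNA assay, or under 0.6; two distinct dsRNAs had to score alike on retest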

CG4404 [DRSC19897] | stable assay Renilla, run 1 (luminescence): 5415; stable assay firefly, run 1 (luminescence): 3.85e5
Top2 [DRSC03459] | stable assay Renilla, run 1 (luminescence): 8839; stable assay firefly, run 1 (luminescence): 5.55e5
CG2816 [DRSC00539] | stable assay Renilla, run 1 (luminescence): 8054; stable assay firefly, run 1 (luminescence): 5.08e5
mRpL2 [DRSC10896] | stable assay Renilla, run 1 (luminescence): 4391; stable assay firefly, run 1 (luminescence): 3.01e5
Tim23 [DRSC21240] | stable assay Renilla, run 1 (luminescence): 4292; stable assay firefly, run 1 (luminescence): 3.45e5
CG9839 [DRSC16574] | stable assay Renilla, run 1 (luminescence): 8332; stable assay firefly, run 1 (luminescence): 5.49e5
CG9706 [DRSC11095] | stable assay Renilla, run 1 (luminescence): 6675; stable assay firefly, run 1 (luminescence): 2.72e5
CG4364 [DRSC02742] | stable assay Renilla, run 1 (luminescence): 8566; stable assay firefly, run 1 (luminescence): 1.18e6
Trpml + CG42638 [DRSC11032] | stable assay Renilla, run 1 (luminescence): 7682; stable assay firefly, run 1 (luminescence): 2.75e5
CG13794 [DRSC02298] | stable assay Renilla, run 1 (luminescence): 7592; stable assay firefly, run 1 (luminescence): 4.13e5
CG32830 (retired record) [DRSC01162] | stable assay Renilla, run 1 (luminescence): 4200; stable assay firefly, run 1 (luminescence): 3.08e5
CG32830 (retired record) [DRSC23151] | stable assay Renilla, run 1 (luminescence): 4080; stable assay firefly, run 1 (luminescence): 2.91e5
CG9993 [DRSC04599] | stable assay Renilla, run 1 (luminescence): 8614; stable assay firefly, run 1 (luminescence): 5.45e5
CG2100 [DRSC12303] | stable assay Renilla, run 1 (luminescence): 10166; stable assay firefly, run 1 (luminescence): 5.71e5
tau [DRSC14569] | stable assay Renilla, run 1 (luminescence): 5007; stable assay firefly, run 1 (luminescence): 2.73e5
tau [DRSC23046] | stable assay Renilla, run 1 (luminescence): 4667; stable assay firefly, run 1 (luminescence): 3.19e5
CG42709 [DRSC10277] | stable assay Renilla, run 1 (luminescence): 8354; stable assay firefly, run 1 (luminescence): 4.74e5
vers [DRSC10715] | stable siRNA reporter change: reporter ratio raised past the hit cutoff; stable assay Renilla, run 1 (luminescence): 7815; stable assay firefly, run 1 (luminescence): 2.66e5
vers [DRSC23232] | stable assay Renilla, run 1 (luminescence): 4475; stable assay firefly, run 1 (luminescence): 2.93e5
Argk2 [DRSC10483] | stable assay Renilla, run 1 (luminescence): 6254; stable assay firefly, run 1 (luminescence): 4.47e5
Argk2 [DRSC23349] | stable assay Renilla, run 1 (luminescence): 4552; stable assay firefly, run 1 (luminescence): 3.93e5
Rgk1 (retired record) [DRSC07343] | stable assay Renilla, run 1 (luminescence): 5928; stable assay firefly, run 1 (luminescence): 3.69e5
Rgk1 (retired record) [DRSC07344] | stable assay Renilla, run 1 (luminescence): 5134; stable assay firefly, run 1 (luminescence): 2.02e5
CG3589 [DRSC04392] | stable assay Renilla, run 1 (luminescence): 23567; stable assay firefly, run 1 (luminescence): 1.98e6
Cpr67Fa2 [DRSC10315] | stable assay Renilla, run 1 (luminescence): 4884; stable assay firefly, run 1 (luminescence): 3.11e5
PGAP5 [DRSC03089] | stable assay Renilla, run 1 (luminescence): 8688; stable assay firefly, run 1 (luminescence): 5.51e5
Decay [DRSC16930] | stable assay Renilla, run 1 (luminescence): 8754; stable assay firefly, run 1 (luminescence): 5.50e5
CG17612 [DRSC00505] | stable assay Renilla, run 1 (luminescence): 33563; stable assay firefly, run 1 (luminescence): 5.74e5
Polr2I [DRSC16832] | stable assay Renilla, run 1 (luminescence): 4812; stable assay firefly, run 1 (luminescence): 2.58e5
CG18666 [DRSC02694] | stable assay Renilla, run 1 (luminescence): 6399; stable assay firefly, run 1 (luminescence): 3.64e5
CG46339 [DRSC14136] | stable assay Renilla, run 1 (luminescence): 8280; stable assay firefly, run 1 (luminescence): 3.35e5
CG9411 [DRSC20184] | stable assay Renilla, run 1 (luminescence): 8574; stable assay firefly, run 1 (luminescence): 4.98e5
CG32235 [DRSC23257] | stable assay Renilla, run 1 (luminescence): 5868; stable assay firefly, run 1 (luminescence): 4.53e5
Sbat [DRSC00160] | stable assay Renilla, run 1 (luminescence): 5528; stable assay firefly, run 1 (luminescence): 3.56e5
bsd [DRSC05953] | stable assay Renilla, run 1 (luminescence): 7790; stable assay firefly, run 1 (luminescence): 3.60e5

In a second layout: 6 of the entries above
Target gene	amplicon	stable siRNA reporter change	stable assay Renilla, run 1 (luminescence)	stable assay firefly, run 1 (luminescence)
CG4404	DRSC19897		5415	3.85e5
Top2	DRSC03459		8839	5.55e5
CG2816	DRSC00539		8054	5.08e5
mRpL2	DRSC10896		4391	3.01e5
Tim23	DRSC21240		4292	3.45e5
CG9839	DRSC16574		8332	5.49e5
